Some of the results follow. Repeats are few or missing, and single values can be far off.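 Imaging used 1,536-well plates; nuclei positive for cleaved PARP by antibody were divided by total DNA-stained nuclei to yield the apoptosis fraction. Doses for screening kept most cells viable, and cell lines differ markedly in resting and induced cleaved-PARP levels.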
How the values were obtained:
Assay in all cases: cleaved PARP positive nuclei fraction relative to DMSO control; melanoma cells; higher = more apoptosis
Settings in all cases: library dose: low library concentration; 72 h
501Mel = system: 501Mel
A101D = system: A101D
A2058 = system: A2058
A375 = system: A375
C32 = system: C32
CBRC008 = system: CBRC008 (line from a melanoma biopsy)
CBRC014 = system: CBRC014 (line from a melanoma biopsy)
CBRC016 = system: CBRC016 (line from a melanoma biopsy)
CBRC017 = system: CBRC017 (line from a melanoma biopsy)
CBRC034 = system: CBRC034 (line from a melanoma biopsy)
COLO792 = system: COLO792
COLO800 = system: COLO800
COLO829 = system: COLO829
G361 = system: G361
IPC-298 = system: IPC-298
IST-MEL1 = system: IST-MEL1
LB2518-MEL = system: LB2518-MEL
LOXIMVI = system: LOXIMVI
MEL-HO = system: MEL-HO

SMILES | cleaved PARP positive nuclei fraction (501Mel) [%] | cleaved PARP positive nuclei fraction (A101D) [%] | cleaved PARP positive nuclei fraction (A2058) [%] | cleaved PARP positive nuclei fraction (A375) [%] | cleaved PARP positive nuclei fraction (C32) [%] | cleaved PARP positive nuclei fraction (CBRC008) [%] | cleaved PARP positive nuclei fraction (CBRC014) [%] | cleaved PARP positive nuclei fraction (CBRC016) [%] | cleaved PARP positive nuclei fraction (CBRC017) [%] | cleaved PARP positive nuclei fraction (CBRC034) [%] | cleaved PARP positive nuclei fraction (COLO792) [%] | cleaved PARP positive nuclei fraction (COLO800) [%] | cleaved PARP positive nuclei fraction (COLO829) [%] | cleaved PARP positive nuclei fraction (G361) [%] | cleaved PARP positive nuclei fraction (IPC-298) [%] | cleaved PARP positive nuclei fraction (IST-MEL1) [%] | cleaved PARP positive nuclei fraction (LB2518-MEL) [%] | cleaved PARP positive nuclei fraction (LOXIMVI) [%] | cleaved PARP positive nuclei fraction (MEL-HO) [%]
CC(C)C[C@H](NC(=O)[C@H](Cc1ccccc1)NC(=O)c1cnccn1)B(O)O [Bortezomib] + O=C(O)[C@@H]1[O][Sb](=[O])([O][Sb]2(=[O])[O][C@H]([C@H](O)CO)[C@H](O)[C@H](C(=O)O)[O]2)[O][C@H]([C@H](O)CO)[C@@H]1O [stibogluconate] (first compound 0.001 µM, partner dose 2 µM) | 604 | 269 | 57 | 105 | 79.4 | 388 | 176 | 370 | 191 | 241 | 60.4 | 53.9 | 191 | 1320 | 92.5 | 65.2 | 149 | 128 | 111
CN1CCN(c2ccc3nc(-c4c(N)c5c(F)cccc5[nH]c4=O)[nH]c3c2)CC1 [Dovitinib] + OCc1c[nH]c2ccccc12 [Indole-3-carbinol] (first compound 0.1 µM, partner dose 0.8 µM) | 150 | 99.2 | 88 | 137 | 119 | 26.4 | 78.5 | 114 | 87.8 | 34.8 | 70.4 | 102 | 100 | 116 | 126 | 126 | 60.8 | 322 | 52.3
Cn1c(=O)n(-c2ccc(C(C)(C)C#N)cc2)c2c3cc(-c4cnc5ccccc5c4)ccc3ncc21 + CC(C)C[C@H](NC(=O)[C@H](Cc1ccccc1)NC(=O)c1cnccn1)B(O)O [Bortezomib] (first compound 0.004 µM, partner dose 0.001 µM) | 147 | 102 | 99.8 | 278 | 38.3 | 406 | 170 | 317 | 143 | 153 | 125 | 126 | 358 | 986 | 249 | 291 | 108 | 292 | 63.2
Cc1cc(Nc2cc(N3CCN(C)CC3)nc(/C=C/c3ccccc3)n2)n[nH]1 + O=C(O)c1ccc2c(c1)nc(Nc1cccc(Cl)c1)c1ccncc12 [CX4945] (first compound 0.04 µM, partner dose 0.4 µM) | 144 | 45.7 | 198 | 134 | 152 | 102 | 123 | 213 | 160 | 70.9 | 118 | 53.4 | 189 | 126 | 86.9 | 118 | 122 | 92.8 | 120
Cc1cc(Nc2cc(N3CCN(C)CC3)nc(/C=C/c3ccccc3)n2)n[nH]1 + Cn1c(=O)n(-c2ccc(C(C)(C)C#N)cc2)c2c3cc(-c4cnc5ccccc5c4)ccc3ncc21 [NVP-BEZ235] (first compound 0.04 µM, partner dose 0.004 µM) | 69.3 | 119 | 13.5 | 320 | 75.4 | 24.9 | 86.1 | 46.9 | 103 | 61.7 | 175 | 52.7 | 104 | 78.9 | 42.8 | 53.4 | 60.6 | 90.1 | 75.3
CCCS(=O)(=O)Nc1ccc(F)c(C(=O)c2c[nH]c3ncc(Cl)cc23)c1F + Nc1nc(F)nc2c1ncn2[C@@H]1O[C@H](CO)[C@@H](O)[C@@H]1O [fludarabine] (first compound 0.08 µM, partner dose 0.2 µM) | 9200 | 97.1 | 21.8 | 3600 | 85 | 48.9 | 123 | 91.2 | 106 | 22.5 | 67.7 | 89.8 | 169 | 119 | 178 | 64.8 | 95.2 | 109 | 39.7
Nc1ccn([C@@H]2O[C@H](CO)[C@@H](O)C2(F)F)c(=O)n1 [gemcitabine] + Cc1nc(Nc2ncc(C(=O)Nc3c(C)cccc3Cl)s2)cc(N2CCN(CCO)CC2)n1 [dasatanib] (first compound 0.0004 µM, partner dose 0.004 µM) | 117 | 137 | 117 | 168 | 89.4 | 164 | 123 | 105 | 129 | 165 | 82.8 | 103 | 148 | 152 | 32.2 | 114 | 61.9 | 132 | 64.5
CN1CCN(c2ccc3nc(-c4c(N)c5c(F)cccc5[nH]c4=O)[nH]c3c2)CC1 [Dovitinib] + CO[C@H]1C[C@@H]2CC[C@@H](C)[C@@](O)(O2)C(=O)C(=O)N2CCCC[C@H]2C(=O)O[C@H]([C@H](C)C[C@@H]2CC[C@@H](OCCO)[C@H](OC)C2)CC(=O)[C@H](C)/C=C(\C)[C@@H](O)[C@@H](OC)C(=O)[C@H](C)C[C@H](C)/C=C/C=C/C=C/1C [everolimus] (first compound 0.1 µM, partner dose 0.02 µM) | 894 | 109 | 153 | 682 | 264 | 224 | 91.7 | 71.9 | 142 | 68.4 | 257 | 39.4 | 160 | 21.9 | 123 | 161 | 369 | 87.2 | 124
Nc1ncn([C@H]2C[C@H](O)[C@@H](CO)O2)c(=O)n1 [decitabine] + C=CCNC1=C2C[C@@H](C)C[C@H](OC)[C@H](O)[C@@H](C)/C=C(\C)[C@H](OC(N)=O)[C@@H](OC)/C=C\C=C(/C)C(=O)NC(=CC1=O)C2=O [Tanespimycin] (first compound 0.1 µM, partner dose 0.002 µM) | 107 | 64.3 | 44.9 | 208 | 88.2 | 90.6 | 97.4 | 370 | 149 | 140 | 128 | 180 | 135 | 104 | 141 | 77.1 | 95.7 | 36.4 | 82.2
CNC(=O)c1cc(Oc2ccc(NC(=O)Nc3ccc(Cl)c(C(F)(F)F)c3)cc2)ccn1 [sorafenib] + CS(=O)(=O)CCNCc1ccc(-c2ccc3ncnc(Nc4ccc(OCc5cccc(F)c5)c(Cl)c4)c3c2)o1 [lapatinib] (first compound 0.4 µM, partner dose 0.8 µM) | 101 | 80.7 | 139 | 247 | 73.5 | 167 | 122 | 70 | 136 | 37.6 | 82.9 | 164 | 63.4 | 113 | 94.1 | 85.7 | 110 | 77.8 | 116
CN1CCN(c2ccc3nc(-c4c(N)c5c(F)cccc5[nH]c4=O)[nH]c3c2)CC1 [Dovitinib] + CS(=O)(=O)CCNCc1ccc(-c2ccc3ncnc(Nc4ccc(OCc5cccc(F)c5)c(Cl)c4)c3c2)o1 [lapatinib] (first compound 0.1 µM, partner dose 0.8 µM) | 65.7 | 152 | 328 | 89.3 | 157 | 76.6 | 103 | 68.8 | 94.3 | 274 | 100 | 160 | 59.6 | 93.5 | 44.2 | 44.8 | 107 | 154 | 121
O=C(O)c1ccc2c(c1)nc(Nc1cccc(Cl)c1)c1ccncc12 + Nc1nc(F)nc2c1ncn2[C@@H]1O[C@H](CO)[C@@H](O)[C@@H]1O [fludarabine] (first compound 0.4 µM, partner dose 0.2 µM) | 16200 | 38.3 | 215 | 6210 | 72.7 | 134 | 125 | 154 | 272 | 58.1 | 193 | 86 | 114 | 145 | 83.3 | 261 | 26 | 156 | 86.4
Cn1c(=O)n(-c2ccc(C(C)(C)C#N)cc2)c2c3cc(-c4cnc5ccccc5c4)ccc3ncc21 + C[C@]1(c2nc3c(C(N)=O)cccc3[nH]2)CCCN1 [Veliparib] (first compound 0.004 µM, partner dose 1.4 µM) | 142 | 248 | 63.4 | 332 | 179 | 138 | 92 | 40 | 95 | 91.2 | 64.3 | 134 | 93.5 | 122 | 141 | 214 | 83.8 | 275 | 88.6
CNC(=O)c1cc(Oc2ccc(NC(=O)Nc3ccc(Cl)c(C(F)(F)F)c3)cc2)ccn1 [sorafenib] + Cn1nnc2c(C(N)=O)ncn2c1=O [temozolomide] (first compound 0.4 µM, partner dose 2 µM) | 176 | 42.5 | 71.3 | 21.3 | 76.9 | 90.8 | 87.1 | 84.7 | 115 | 130 | 148 | 103 | 94.7 | 71 | 134 | 164 | 103 | 142 | 131
Nc1nc(F)nc2c1ncn2[C@@H]1O[C@H](CO)[C@@H](O)[C@@H]1O [fludarabine] + Cc1nc(Nc2ncc(C(=O)Nc3c(C)cccc3Cl)s2)cc(N2CCN(CCO)CC2)n1 [dasatanib] (first compound 0.2 µM, partner dose 0.004 µM) | 9830 | 279 | 246 | 2990 | 91 | 99.2 | 118 | 47.7 | 106 | 145 | 153 | 146 | 174 | 47.5 | 141 | 279 | 58.5 | 248 | 53
CCCS(=O)(=O)Nc1ccc(F)c(C(=O)c2c[nH]c3ncc(Cl)cc23)c1F + Cn1nnc2c(C(N)=O)ncn2c1=O [temozolomide] (first compound 0.08 µM, partner dose 2 µM) | 67.3 | 84.4 | 177 | 476 | 79.3 | 43.4 | 108 | 74.2 | 72.2 | 81.7 | 55.6 | 70.2 | 143 | 169 | 87.1 | 89.5 | 95.7 | 55.3 | 143
O=C(O)c1ccc2c(c1)nc(Nc1cccc(Cl)c1)c1ccncc12 + C[C@]1(c2nc3c(C(N)=O)cccc3[nH]2)CCCN1 [Veliparib] (first compound 0.4 µM, partner dose 1.4 µM) | 30.7 | 80.7 | 260 | 150 | 82.3 | 26.2 | 168 | 146 | 189 | 310 | 87.3 | 106 | 141 | 211 | 68.6 | 250 | 53.1 | 115 | 47.1

A different layout for some results above:
SMILES	cleaved PARP positive nuclei fraction (501Mel) [%]	cleaved PARP positive nuclei fraction (A101D) [%]	cleaved PARP positive nuclei fraction (A2058) [%]	cleaved PARP positive nuclei fraction (A375) [%]	cleaved PARP positive nuclei fraction (C32) [%]	cleaved PARP positive nuclei fraction (CBRC008) [%]	cleaved PARP positive nuclei fraction (CBRC014) [%]	cleaved PARP positive nuclei fraction (CBRC016) [%]	cleaved PARP positive nuclei fraction (CBRC017) [%]	cleaved PARP positive nuclei fraction (CBRC034) [%]	cleaved PARP positive nuclei fraction (COLO792) [%]	cleaved PARP positive nuclei fraction (COLO800) [%]	cleaved PARP positive nuclei fraction (COLO829) [%]	cleaved PARP positive nuclei fraction (G361) [%]	cleaved PARP positive nuclei fraction (IPC-298) [%]	cleaved PARP positive nuclei fraction (IST-MEL1) [%]	cleaved PARP positive nuclei fraction (LB2518-MEL) [%]	cleaved PARP positive nuclei fraction (LOXIMVI) [%]	cleaved PARP positive nuclei fraction (MEL-HO) [%]
Nc1ncn([C@H]2C[C@H](O)[C@@H](CO)O2)c(=O)n1 [decitabine] + C=CCNC1=C2C[C@@H](C)C[C@H](OC)[C@H](O)[C@@H](C)/C=C(\C)[C@H](OC(N)=O)[C@@H](OC)/C=C\C=C(/C)C(=O)NC(=CC1=O)C2=O [Tanespimycin] (first compound 0.1 µM, partner dose 0.002 µM)	107	64.3	44.9	208	88.2	90.6	97.4	370	149	140	128	180	135	104	141	77.1	95.7	36.4	82.2
CNC(=O)c1cc(Oc2ccc(NC(=O)Nc3ccc(Cl)c(C(F)(F)F)c3)cc2)ccn1 [sorafenib] + CS(=O)(=O)CCNCc1ccc(-c2ccc3ncnc(Nc4ccc(OCc5cccc(F)c5)c(Cl)c4)c3c2)o1 [lapatinib] (first compound 0.4 µM, partner dose 0.8 µM)	101	80.7	139	247	73.5	167	122	70	136	37.6	82.9	164	63.4	113	94.1	85.7	110	77.8	116
CN1CCN(c2ccc3nc(-c4c(N)c5c(F)cccc5[nH]c4=O)[nH]c3c2)CC1 [Dovitinib] + CS(=O)(=O)CCNCc1ccc(-c2ccc3ncnc(Nc4ccc(OCc5cccc(F)c5)c(Cl)c4)c3c2)o1 [lapatinib] (first compound 0.1 µM, partner dose 0.8 µM)	65.7	152	328	89.3	157	76.6	103	68.8	94.3	274	100	160	59.6	93.5	44.2	44.8	107	154	121

Source: the supplement of paper PMC4604168 (melanoma cell lines)
